Measured values as given in publication PMC5955133.
These are yes or no findings as the source states them, for the method shown. Binding seen in cells or lysates may run through a third protein. Some entries that bind do so weakly or less than the wild type. Sequences can lack the tags named with a protein.

Chains of the proteins cited; added tags and fusions are not shown.
UniProt P06788: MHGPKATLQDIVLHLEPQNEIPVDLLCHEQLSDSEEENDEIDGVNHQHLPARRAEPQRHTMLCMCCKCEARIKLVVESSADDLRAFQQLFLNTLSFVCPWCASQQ

B1: GSTM3 (glutathione S-transferase family member) (protein, UniProt P21266 1-225)
chain: MSCESSMVLGYWDIRGLAHAIRLLLEFTDTSYEEKRYTCGEAPDYDRSQWLDVKFKLDLDFPNLPYLLDGKNKITQSNAILRYIARKHNMCGETEEEKIRVDIIENQVMDFRTQLIRLCYSSDHEKLKPQYLEELPGQLKQFSMFLGKFSWFAGEKLTFVDFLTYDILDQNRIFDPKCLDEFPNLKAFMCRFEALEKIAAYLQSDQFCKMPINNKMAQWGNKPVC

Experiments:
[1] = biological target: T1, recombinant human GSTM3 protein with a His-tag added at the N-terminus (N-6x His-tag) (human) (UniProt P21266); experiment: pull-down; recombinant GSTM3 N-6x His captured (nickel beads), incubated with a protein extract from HeLa cells; eluate blotted with anti-HPV18 E7; only the target purified
T1 sequence: B1 chain

[2] = biological target: recombinant HPV18 E7 C-6x-his-tagged protein (HPV18) (UniProt P06788); experiment: pull-down; HeLa cells transfected with HPV18 E7 C-6x His; cell lysates subjected to Ni 6x His-tag pull-down; western blot; GSTM3 identified by MALDI-TOF and/or MS/MS

Row | Molecule | binding [1] | binding [2]
1 | E7 protein from HPV18 (from UniProt P06788 1-105) | binds | –
2 | B1 | – | binds
